Test [1] deals with poly(rC) binding protein 2 (PCBP2), endogenous (human (endogenous in Bel-7402 and SMMC-7721)) (UniProt Q15366). Briefly: co-IP; endogenous proteins, Bel-7402 lysate, protein A/G-Sepharose, Western/IP lysis buffer; some panels with CCT3 knocked down or overexpressed (cell line not named for Fig. 2f).
Test [2] has the same target. The experiment in a line: co-IP; anti-PCBP2 immunoprecipitates from Bel-7402 cells expressing increasing amounts of CCT3; control cells, YAP knock-down, and re-expression of YAP-WT or YAP-d2WW; PCBP2 adjusted to the same level in the precipitates.
The target in test [3] is Yes-associated protein (YAP), endogenous (human (endogenous in Bel-7402 and SMMC-7721)) (UniProt P46937). The experiment in a line: co-IP; endogenous proteins, Bel-7402 lysate, protein A/G-Sepharose, Western/IP lysis buffer; some panels with CCT3 knocked down or overexpressed (cell line not named for Fig. 2f).
The target in test [4] is T1, transcription factor CP2 (TFCP2), endogenous (human (endogenous in Bel-7402 and SMMC-7721)) (UniProt Q12800).
T1 sequence: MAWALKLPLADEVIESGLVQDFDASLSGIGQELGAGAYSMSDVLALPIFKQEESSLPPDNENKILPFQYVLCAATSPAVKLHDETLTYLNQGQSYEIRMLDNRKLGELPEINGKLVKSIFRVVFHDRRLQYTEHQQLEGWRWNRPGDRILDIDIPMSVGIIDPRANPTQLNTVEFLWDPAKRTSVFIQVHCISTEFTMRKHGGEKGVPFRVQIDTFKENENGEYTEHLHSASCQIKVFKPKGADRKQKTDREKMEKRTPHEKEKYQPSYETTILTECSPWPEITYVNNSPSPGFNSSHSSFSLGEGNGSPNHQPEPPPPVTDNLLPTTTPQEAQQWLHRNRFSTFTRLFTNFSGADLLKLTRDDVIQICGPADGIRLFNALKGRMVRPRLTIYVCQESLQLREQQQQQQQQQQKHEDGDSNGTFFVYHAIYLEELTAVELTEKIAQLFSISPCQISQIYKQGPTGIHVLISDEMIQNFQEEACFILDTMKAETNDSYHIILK
Described as above.

Amino acid sequences for entries named in this document (tags omitted).
UniProt Q15366: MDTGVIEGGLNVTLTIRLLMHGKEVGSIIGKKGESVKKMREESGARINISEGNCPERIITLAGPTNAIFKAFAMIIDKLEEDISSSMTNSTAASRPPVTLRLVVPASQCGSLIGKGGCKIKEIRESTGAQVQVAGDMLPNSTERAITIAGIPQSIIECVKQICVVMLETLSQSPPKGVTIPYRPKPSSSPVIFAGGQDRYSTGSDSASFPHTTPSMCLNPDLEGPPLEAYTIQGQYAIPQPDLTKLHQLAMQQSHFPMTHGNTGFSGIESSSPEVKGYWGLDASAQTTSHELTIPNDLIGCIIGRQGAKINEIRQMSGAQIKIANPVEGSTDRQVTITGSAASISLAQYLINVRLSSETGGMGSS
UniProt P46937: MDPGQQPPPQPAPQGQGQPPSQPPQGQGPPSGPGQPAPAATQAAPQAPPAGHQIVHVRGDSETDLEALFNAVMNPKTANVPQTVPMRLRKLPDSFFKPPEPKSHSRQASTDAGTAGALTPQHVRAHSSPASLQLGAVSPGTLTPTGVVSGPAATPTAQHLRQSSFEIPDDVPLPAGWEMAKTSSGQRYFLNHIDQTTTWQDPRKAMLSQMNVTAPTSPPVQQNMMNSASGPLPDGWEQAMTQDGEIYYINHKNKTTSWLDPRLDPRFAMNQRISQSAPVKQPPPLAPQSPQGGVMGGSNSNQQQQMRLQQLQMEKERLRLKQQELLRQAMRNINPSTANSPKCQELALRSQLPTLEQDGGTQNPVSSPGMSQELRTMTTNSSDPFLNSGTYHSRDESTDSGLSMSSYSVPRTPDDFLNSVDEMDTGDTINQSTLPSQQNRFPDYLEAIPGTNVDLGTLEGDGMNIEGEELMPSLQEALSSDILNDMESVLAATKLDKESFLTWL

Results are given in words; binding and its absence hold for the method and conditions named. In cells and extracts the contact can be indirect. Some results given as binding are weak or reduced against the parent protein; the word gives no strength.

For “Yes-associated protein (YAP), endogenous (from UniProt P46937 1-504)”, the binding result in test [1] and in test [2] was “binds” each time.

B1: CCT2, endogenous (protein, UniProt P78371 1-535)
chain: MASLSLAPVNIFKAGADEERAETARLTSFIGAIAIGDLVKSTLGPKGMDKILLSSGRDASLMVTNDGATILKNIGVDNPAAKVLVDMSRVQDDEVGDGTTSVTVLAAELLREAESLIAKKIHPQTIIAGWREATKAAREALLSSAVDHGSDEVKFRQDLMNIAGTTLSSKLLTHHKDHFTKLAVEAVLRLKGSGNLEAIHIIKKLGGSLADSYLDEGFLLDKKIGVNQPKRIENAKILIANTGMDTDKIKIFGSRVRVDSTAKVAEIEHAEKEKMKEKVERILKHGINCFINRQLIYNYPEQLFGAAGVMAIEHADFAGVERLALVTGGEIASTFDHPELVKLGSCKLIEEVMIGEDKLIHFSGVALGEACTIVLRGATQQILDEAERSLHDALCVLAQTVKDSRTVYGGGCSEMLMAHAVTQLANRTPGKEAVAMESYAKALRMLPTIIADNAGYDSADLVAQLRAAHSEGNTTAGLDMREGTIGDMAILGITESFQVKRQVLLSAAEAAEVILRVDNIIKAAPRKRVPDHHPC
Take B1: the binding result in test [3] and in test [4] was “binds” each time.

B2: transcription factor CP2 (TFCP2), endogenous (protein, UniProt Q12800 1-502)
chain: MAWALKLPLADEVIESGLVQDFDASLSGIGQELGAGAYSMSDVLALPIFKQEESSLPPDNENKILPFQYVLCAATSPAVKLHDETLTYLNQGQSYEIRMLDNRKLGELPEINGKLVKSIFRVVFHDRRLQYTEHQQLEGWRWNRPGDRILDIDIPMSVGIIDPRANPTQLNTVEFLWDPAKRTSVFIQVHCISTEFTMRKHGGEKGVPFRVQIDTFKENENGEYTEHLHSASCQIKVFKPKGADRKQKTDREKMEKRTPHEKEKYQPSYETTILTECSPWPEITYVNNSPSPGFNSSHSSFSLGEGNGSPNHQPEPPPPVTDNLLPTTTPQEAQQWLHRNRFSTFTRLFTNFSGADLLKLTRDDVIQICGPADGIRLFNALKGRMVRPRLTIYVCQESLQLREQQQQQQQQQQKHEDGDSNGTFFVYHAIYLEELTAVELTEKIAQLFSISPCQISQIYKQGPTGIHVLISDEMIQNFQEEACFILDTMKAETNDSYHIILK
As for B2, the binding result in test [3] is recorded as “binds”.
